Reference: PubChem BioAssay (NCATS)
The shares of active, inactive and inconclusive entries below differ from those in the screen. Potencies beside an inconclusive call are fits to weak or partial responses and may not hold up. Calls of active or inactive are those of the source. Calls follow the shape of the dose curve; as a rule, active = well fitted cell-killing curve with a large enough effect; inconclusive = small, poorly fitted or top-dose-only effect, or effect the other way; inactive = no such curve, though single readings can be large or run the other way.

Assays:
[1] = Quantitative High-Throughput drug screen in 47 multiple myeloma cell lines against the NCATS MIPE library collection: Delta47_JCRB cell viability assay (AID 1918925; also: nearly all actives have a fitted effect of over 45% in size); details: Delta47 myeloma viability, CellTiter-Glo ATP, 48 h; viability (% of DMSO): at 45.8 µM (top of the series) unless noted
Procedure, shortened: (§1)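 Myeloma cells (500 per well) were exposed to MIPE 4.0 compounds by pin transfer and incubated 48 hours at 37C, 5% CO2. Viability was read as ATP by CellTiter-Glo luminescence, normalised to DMSO (100%) and media-only (0%) wells.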

[2] = Quantitative High-Throughput drug screen in 47 multiple myeloma cell lines against the NCATS MIPE library collection: AMO1_DSMZ cell viability assay (AID 1918927; also: nearly all actives have a fitted effect of over 30% in size)
Procedure, shortened: as §1

[3] = Quantitative High-Throughput drug screen in 47 multiple myeloma cell lines against the NCATS MIPE library collection: ARP1_JJKsccF8 cell viability assay (AID 1918928; also: nearly all actives have a fitted effect of over 40% in size); details: ARP1 myeloma cells viability, CellTiter-Glo ATP, 48 h; viability: at 45.8 µM (top of the series)
Procedure, shortened: (§2)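 500 cells/well; MIPE 4.0 library pinned in; 48 h, 37 °C, 5% CO2; CellTiter-Glo ATP luminescence. Controls: DMSO = 100% viability, medium only = 0%.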

[4] = Quantitative High-Throughput drug screen in 47 multiple myeloma cell lines against the NCATS MIPE library collection: ARD_JJKsccE7 cell viability assay (AID 1918929)
Procedure, shortened: as §1

[5] = Quantitative High-Throughput drug screen in 47 multiple myeloma cell lines against the NCATS MIPE library collection: Karpas620_DSMZ cell viability assay (AID 1918959); also: nearly all actives have a fitted effect of over 30% in size
Procedure, shortened: as §1

[6] = Quantitative High-Throughput drug screen in 47 multiple myeloma cell lines against the NCATS MIPE library collection: KMM1_JCRB cell viability assay (AID 1918960); details: KMM1 myeloma viability, CellTiter-Glo ATP luminescence, 48 h; viability (% of DMSO): at 45.8 µM (top of the series); also: nearly all actives have a fitted effect of over 30% in size
Procedure, shortened: as §2

[7] = Quantitative High-Throughput drug screen in 47 multiple myeloma cell lines against the NCATS MIPE library collection: Karpas417_ECACC cell viability assay (AID 1918961); details: Karpas417 myeloma viability, CellTiter-Glo ATP luminescence, 48 h; viability (% of DMSO): at 45.8 µM (top of the series) unless noted
Procedure, shortened: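 CellTiter-Glo ATP luminescence gave viability after 48 h compound treatment at 37C of 500 multiple myeloma cells per well. Normalisation used DMSO-only wells as 100% and media-only wells as 0% viability; primary qHTS of approved and investigational drugs.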

[8] = Quantitative High-Throughput drug screen in 47 multiple myeloma cell lines against the NCATS MIPE library collection: KHM11_PLB cell viability assay (AID 1918962); details: KHM11 myeloma cell viability, CellTiter-Glo ATP luminescence, 48 h; series mostly up to 45.8 µM; also: nearly all actives have a fitted effect of over 35% in size
Procedure, shortened: as §1

[9] = Quantitative High-Throughput drug screen in 47 multiple myeloma cell lines against the NCATS MIPE library collection: EJM_DSMZ cell viability assay (AID 1918926; also: nearly all actives have a fitted effect of over 30% in size); details: EJM myeloma cell viability, CellTiter-Glo ATP, 48 h; series mostly up to 45.8 µM
Procedure, shortened: as §1
Potency is read from the fitted curve at half-maximal effect.

With `N#Cc1ccc(C(c2ccc(C#N)cc2)n2cncn2)cc1` the Potency [1] was inconclusive: 10.5 µM [cytotoxic, partial curve, poor fit], the Potency [2] was inconclusive: 14.8 µM [cytotoxic, partial curve] and the Potency [3] was inconclusive: 3.72 µM [cytotoxic, full curve]. For the same compound, the Potency [4] was active: 6.62 µM, the Potency [5] was active: 18.7 µM and the Potency [6] was inconclusive: 11.8 µM [cytotoxic, partial curve]. For the same compound, the Potency [7] was inconclusive: 5.9 µM [cytotoxic, full curve, poor fit] and the Potency [8] was inconclusive: 10.5 µM [cytotoxic, partial curve, poor fit].
For `O=C(NCCO[N+](=O)[O-])c1cccnc1`, the Potency [1] was inconclusive: 0.0012 µM [rising, full curve, poor fit], the Potency [2] was inconclusive: 0.0059 µM [rising, full curve, poor fit] and the Potency [4] was “inactive”. For the same compound, the Potency [5] was “inactive”, the Potency [7] was inconclusive: 13.2 µM [cytotoxic, partial curve, poor fit] and the Potency [8] was inconclusive: 0.264 µM [rising, full curve].
For `O=C(O)C1=CO[C@@H](O[C@@H]2O[C@H](CO)[C@H](O)[C@H](O)[C@H]2O)[C@@H]2C(CO)=CC[C@H]12`, the Potency [1] was inconclusive: 0.001 µM [cytotoxic], the Potency [2] was “inactive” and the Potency [4] was “inactive”. For the same compound, the Potency [5] was inconclusive: 0.118 µM [cytotoxic, partial curve, poor fit], the Potency [6] was inconclusive: 0.0026 µM [rising, full curve, poor fit] and the Potency [7] was “inactive”. The Potency [8] was inconclusive: 18.7 µM [cytotoxic, partial curve, poor fit].
In the case of `N#Cc1c(N(CC(=O)O)CC(=O)O)sc(C(=O)O)c1CC(=O)O`, the Potency [1] is reported as inconclusive: 8.33 µM [cytotoxic, partial curve, poor fit], the Potency [2] is reported as active: 8.33 µM and the Potency [3] is reported as inconclusive: 0.0132 µM [cytotoxic, full curve, poor fit]. For the same compound, the Potency [4] was inconclusive: 8.33 µM [cytotoxic, full curve], the Potency [5] was inconclusive: 5.9 µM [cytotoxic, full curve] and the Potency [6] was inconclusive: 9.35 µM [cytotoxic, full curve]. For the same compound, the Potency [7] was “inactive” and the Potency [8] was “inactive”.
In the case of `CC(C)C[C@@H](N)[C@H](O)C(=O)N[C@H](C(=O)N[C@H](C(=O)N[C@@H](CC(=O)O)C(=O)O)C(C)C)C(C)C`, the Potency [1] is reported as inconclusive: 33.2 µM [cytotoxic, single point], the Potency [2] is reported as “inactive” and the Potency [4] is reported as inconclusive: 2.09 µM [cytotoxic, full curve, poor fit]. For the same compound, the Potency [5] was “inactive”, the Potency [6] was “inactive” and the Potency [7] was “inactive”. The Potency [8] was inconclusive: 18.7 µM [cytotoxic, partial curve, poor fit].
In the case of `CCn1cc(C(=O)O)c(=O)c2ccc(C)nc21`, the Potency [1] is reported as “inactive”, the Potency [2] is reported as inconclusive: 0.0083 µM [rising, full curve, poor fit] and the Potency [3] is reported as inconclusive: 0.0012 µM [rising, full curve, poor fit]. The Potency [4] was “inactive”, the Potency [6] was “inactive” and the Potency [8] was inconclusive: 37.2 µM [cytotoxic, single point].
For `Cc1cccc(Nc2ccncc2S(=O)(=O)NC(=O)NC(C)C)c1`, the Potency [1] was “inactive”, the Potency [9] was “inactive” and the Potency [3] was “inactive”. The Potency [4] was inconclusive: 14.8 µM [rising, partial curve, poor fit], the Potency [6] was “inactive” and the Potency [7] was inconclusive: 0.0264 µM [cytotoxic, full curve, poor fit]. The Potency [8] was “inactive”.
For `COc1cc2nccc(Oc3ccc(NC(=O)Nc4ccc(F)cc4F)c(F)c3)c2cc1OC`, the Potency [1] was inconclusive: 0.332 µM [cytotoxic, full curve, poor fit], the Potency [9] was inconclusive: 20.9 µM [cytotoxic, partial curve] and the Potency [3] was “inactive”. The Potency [4] was “inactive”, the Potency [7] was inconclusive: 11.8 µM [rising, full curve, poor fit] and the Potency [8] was inconclusive: 0.0093 µM [rising, full curve, poor fit].
In the case of `Cc1ncc([N+](=O)[O-])n1CC(C)O` (stereo not given), the Potency [1] is reported as inconclusive: 26.4 µM [cytotoxic, single point], the Potency [9] is reported as “inactive” and the Potency [3] is reported as “inactive”. The Potency [4] was “inactive”, the Potency [7] was inconclusive: 0.0187 µM [cytotoxic, full curve, poor fit] and the Potency [8] was inconclusive: 33.2 µM [cytotoxic, single point].
In the case of `CC(C)NCC(O)c1ccc(NS(C)(=O)=O)cc1` (stereo not given), the Potency [1] is reported as “inactive”, the Potency [2] is reported as inconclusive: 0.0118 µM [cytotoxic, full curve, poor fit] and the Potency [3] is reported as inconclusive: 7.43 µM [cytotoxic, single point]. For the same compound, the Potency [6] was “inactive”, the Potency [7] was “inactive” and the Potency [8] was “inactive”.
With `CN(C)N=Nc1nc[nH]c1C(N)=O` the Potency [1] was inconclusive: 0.0021 µM [cytotoxic, full curve, poor fit], the Potency [9] was “inactive” and the Potency [3] was inconclusive: 3.72 µM [cytotoxic, full curve, poor fit]. The Potency [5] was inconclusive: 4.69 µM [cytotoxic, partial curve, poor fit], the Potency [7] was inconclusive: 37.2 µM [rising, partial curve, poor fit] and the Potency [8] was inconclusive: 0.469 µM [cytotoxic, full curve, poor fit].
In the case of `NCC1CCC(C(=O)O)CC1` (stereo not given), the Potency [1] is reported as inconclusive: 0.0935 µM [cytotoxic, full curve, poor fit], the Potency [2] is reported as “inactive” and the Potency [3] is reported as “inactive”. The Potency [4] was “inactive”, the Potency [7] was inconclusive: 18.7 µM [rising, partial curve, poor fit] and the Potency [8] was active: 4.18 µM.
For `Cn1c(=O)c(F)c(Nc2ccc(I)cc2F)c2c(=O)n(C[C@@H](O)CO)cnc21`, the Potency [1] was inconclusive: 13.2 µM [cytotoxic, partial curve, poor fit], the Potency [2] was inconclusive: 20.9 µM [cytotoxic, partial curve, poor fit] and the Potency [3] was inconclusive: 0.003 µM [cytotoxic, full curve, poor fit]. For the same compound, the Potency [4] was inconclusive: 18.7 µM [cytotoxic, partial curve, poor fit] and the Potency [8] was inconclusive: 0.0026 µM [cytotoxic, full curve].
With `CCC(=O)O[C@]1(C(=O)CO)CC[C@H]2[C@@H]3CCC4=CC(=O)CC[C@]4(C)[C@@H]3CC[C@@]21C` the Potency [9] was “inactive”, the Potency [2] was “inactive” and the Potency [3] was inconclusive: 0.264 µM [cytotoxic, full curve, poor fit]. The Potency [4] was inconclusive: 0.0021 µM [cytotoxic, full curve, poor fit] and the Potency [8] was “inactive”.
In the case of `CN[C@H](CC(C)C)C(=O)N[C@H]1C(=O)N[C@@H](CC(N)=O)C(=O)N[C@@H]2C(=O)N[C@H]3C(=O)N[C@H](C(=O)N[C@H](C(=O)O)c4cc(O)cc(O)c4-c4cc3ccc4O)[C@H](O)c3ccc(c(Cl)c3)Oc3cc2cc(c3O[C@@H]2O[C@H](CO)[C@@H](O)[C@H](O)[C@@H]2O[C@H]2C[C@](C)(N)[C@H](O)[C@H](C)O2)Oc2ccc(cc2Cl)[C@H]1O`, the Potency [1] is reported as inconclusive: 0.0021 µM [rising, full curve, poor fit], the Potency [4] is reported as active: 0.0023 µM and the Potency [6] is reported as “inactive”. The Potency [7] was inconclusive: 0.0017 µM [cytotoxic, full curve, poor fit] and the Potency [8] was inconclusive: 0.0526 µM [rising, full curve].
For `O=C(O)CCC1CCC(c2cc(F)ccc2F)(S(=O)(=O)c2ccc(Cl)cc2)CC1` (stereo not given), the Potency [9] was “inactive”, the Potency [2] was active: 5.9 µM and the Potency [3] was “inactive”. For the same compound, the Potency [5] was inconclusive: 33.2 µM [cytotoxic, single point].
In the case of `CN1CCN(Cc2ccc(NC(=O)Nc3ccc(Oc4cc(NC(=O)C5CC5)ncn4)cc3)cc2C(F)(F)F)CC1`, the Potency [1] is reported as active: 0.148 µM, the Potency [4] is reported as “inactive” and the Potency [7] is reported as “inactive”.
With `CC(C)(C)NC(=O)Nc1cccc(Nc2ncc(F)c(NC(C)(C)CO)n2)c1` the Potency [1] was inconclusive: 18.7 µM [cytotoxic, partial curve, poor fit], the Potency [3] was active: 10.5 µM and the Potency [4] was inconclusive: 83.3 µM [cytotoxic, partial curve, poor fit]. For the same compound, the Potency [6] was inconclusive: 29.6 µM [cytotoxic, single point], the Potency [7] was inconclusive: 8.33 µM [cytotoxic, partial curve, poor fit] and the Potency [8] was inconclusive: 5.26 µM [cytotoxic, partial curve, poor fit].
With `OC[C@H]1O[C@@H](Oc2cc(O)cc(C=Cc3ccc(O)cc3)c2)[C@H](O)[C@@H](O)[C@H]1O` the Potency [1] was inconclusive: 33.2 µM [cytotoxic, single point], the Potency [3] was inconclusive: 0.296 µM [rising, full curve, poor fit] and the Potency [4] was inconclusive: 0.001 µM [cytotoxic]. The Potency [6] was inconclusive: 0.0037 µM [rising, full curve], the Potency [7] was inconclusive: 0.0026 µM [cytotoxic, full curve, poor fit] and the Potency [8] was inconclusive: 16.6 µM [cytotoxic, partial curve, poor fit].
For `NC12CC3CC(CC(C3)C1)C2`, the Potency [9] was inconclusive: 0.0042 µM [cytotoxic, full curve, poor fit], the Potency [2] was inconclusive: 29.6 µM [cytotoxic, partial curve, poor fit] and the Potency [3] was inconclusive: 10.5 µM [cytotoxic, partial curve, poor fit]. The Potency [4] was inconclusive: 3.32 µM [cytotoxic, partial curve], the Potency [5] was inconclusive: 20.9 µM [cytotoxic, partial curve, poor fit] and the Potency [6] was inconclusive: 5.9 µM [cytotoxic, partial curve]. For the same compound, the Potency [7] was inconclusive: 0.0047 µM [cytotoxic, full curve, poor fit].
